The list shows a part of the results.
Compound: CC1Cc2ccccc2N1C(=O)C1CCCN(C1)C(=O)CCl (mixture of isomers) [TRIM25 ligand 11 (diastereomer mixture)]
Test: probe-labelled cysteine peptide fold change vs DMSO (competition) (log2 fold change); higher = less target engagement (more negative = stronger competition)
Settings: THP-1, incubation time: 4 h
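Note: competitive chemoproteomic profiling in live THP-1 cells with an iodoacetamide desthiobiotin (IA-DTB) probe, comparing probe-labelled peptide intensities in compound-treated cells against DMSO-treated controls.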

| Target | probe-labelled cysteine peptide fold change (10 µM) | probe-labelled cysteine peptide fold change (50 µM) |
| --- | --- | --- |
| CMPK2_Q5EBM0_40_RFVLELPDCTLAHFALGADAPGDADAPDPR (UniProt Q5EBM0) | -0.0614 | -0.0684 |
| COG8_Q96MW5_165_HTEILEILEIPQLMDTCVR (UniProt Q96MW5) | 0.0274 | -0.0196 |
| COPG1_Q9Y678_440_ETGLSHLCEFIEDCEFTVLATR (UniProt Q9Y678) | 0.0738 | 0.0372 |
| COPB1_P53618_8_TAAENVCYTLINVPMDSEPPSEISLK (UniProt P53618) | 0.0848 | -0.372 |
| COQ5_Q5HYK3_170_VVVCDINK (UniProt Q5HYK3) | 0.0186 | 0.0689 |
| COPS3_Q9UNS2_149_MQMNTNQLTSIHADLCQLCLLAK (UniProt Q9UNS2) | 0.132 | 0.0269 |
| CNOT2_Q9NZN8_175_SSPSIICMPK (UniProt Q9NZN8) | -0.102 | -0.231 |
| COL4A3BP_Q9Y5P4_84_AVITPHDFDECR (UniProt Q9Y5P4) | 0.236 | 0.115 |
| COMMD9_Q9P000_47_KLLDVTCSSLSVTQEEAEELLQALHR (UniProt Q9P000) | -0.195 | 0.271 |
| COA7_Q96BR5_62_FNCEENQHSDSCYK (UniProt Q96BR5) | -0.046 | -0.0432 |
| COG2_Q14746_579_IIQDLSDSCFGFLK (UniProt Q14746) | -0.00864 | -0.00224 |
| COPG1_Q9Y678_169_CSFDVVKR (UniProt Q9Y678) | -0.129 | 0.0248 |
| COL4A3BP_Q9Y5P4_529_KIPALTENDPETWIVCNFSVDHDSAPLNNR (UniProt Q9Y5P4) | 0.24 | -0.169 |
| CNN2_Q99439_175_CASQSGMTAYGTR (UniProt Q99439) | -0.144 | -0.0189 |
| CNNM4_Q6P4Q7_108_STSCLELTK (UniProt Q6P4Q7) | -0.0265 | -0.0149 |
| COPG1_Q9Y678_722+726_EDPTAVACTFSCMMK (UniProt Q9Y678) | -0.0378 | 0.142 |
| CMAS_Q8NFW8_422_EFAEHICLLMEK (UniProt Q8NFW8) | -0.112 | -0.13 |
| CNP_P09543_335_AHITLGCAADVEAVQTGLDLLEILR (UniProt P09543) | -0.305 | -0.113 |
| CNBP_P62633_111_DCDHADEQK (UniProt P62633) | 0.146 | 0.121 |
| CNOT8_Q9UFF9_148_HEEEGIDTLHFAELLMTSGVVLCDNVK (UniProt Q9UFF9) | 0.648 | 0.338 |
| COMP_P49747_351_WGDACDNCR (UniProt P49747) | 0.508 | 0.299 |
| COLGALT1_Q8NBJ5_228_GCFAVPMVHSTFLIDLR (UniProt Q8NBJ5) | 0.194 | -0.244 |
| COMMD9_Q9P000_47_LLDVTCSSLSVTQEEAEELLQALHR (UniProt Q9P000) | 0.253 | 0.258 |
| CNBP_P62633_119+122_CYSCGEFGHIQK (UniProt P62633) | -0.0812 | -0.00549 |
| CNST_Q6PJW8_292_CSTQLLVSEDPK (UniProt Q6PJW8) | -0.296 | -0.178 |
| COPB1_P53618_466_GALWILGEYCSTK (UniProt P53618) | -0.148 | 0.00929 |
| COASY_Q13057_144_YATSCYSCCPR (UniProt Q13057) | -0.192 | -0.216 |
| CNBP_P62633_97_EQCCYNCGK (UniProt P62633) | 0.199 | 0.323 |
| COPS7B_Q9H9Q2_240_ECPPHAEQR (UniProt Q9H9Q2) | -0.0885 | -0.0229 |

An excerpt from further up, as a working copy:

| Target | probe-labelled cysteine peptide fold change (10 µM) | probe-labelled cysteine peptide fold change (50 µM) |
| --- | --- | --- |
| CMPK2_Q5EBM0_40_RFVLELPDCTLAHFALGADAPGDADAPDPR (UniProt Q5EBM0) | -0.0614 | -0.0684 |
| COG8_Q96MW5_165_HTEILEILEIPQLMDTCVR (UniProt Q96MW5) | 0.0274 | -0.0196 |

Reference: the supplement of paper PMC12067093, “Discovery and optimisation of a covalent ligand for TRIM25 and its application to targeted protein ubiquitination” (Chemical Science, 2025)
